Literature values, collected in patent US5166155A, “Quinoxaline-2,3-dione compounds and their preparation and use” (Novo Nordisk A/S, priority 1990, dated 1992).
For at least one compound, name, drawing or mass did not settle the structure.

Test system: NMDA receptor/ionophor complex, allosteric modulatory (glycine) site
Conditions: literature; cited from earlier work

## NC1(C(=O)O)CC1 [1-amino-cyclopropanecarboxylate]
  agonist/antagonist activity at the glycine site: partial agonists
